The target of this test is T1, Met30-Flag (S. cerevisiae) (UniProt P39014).
T1 sequence: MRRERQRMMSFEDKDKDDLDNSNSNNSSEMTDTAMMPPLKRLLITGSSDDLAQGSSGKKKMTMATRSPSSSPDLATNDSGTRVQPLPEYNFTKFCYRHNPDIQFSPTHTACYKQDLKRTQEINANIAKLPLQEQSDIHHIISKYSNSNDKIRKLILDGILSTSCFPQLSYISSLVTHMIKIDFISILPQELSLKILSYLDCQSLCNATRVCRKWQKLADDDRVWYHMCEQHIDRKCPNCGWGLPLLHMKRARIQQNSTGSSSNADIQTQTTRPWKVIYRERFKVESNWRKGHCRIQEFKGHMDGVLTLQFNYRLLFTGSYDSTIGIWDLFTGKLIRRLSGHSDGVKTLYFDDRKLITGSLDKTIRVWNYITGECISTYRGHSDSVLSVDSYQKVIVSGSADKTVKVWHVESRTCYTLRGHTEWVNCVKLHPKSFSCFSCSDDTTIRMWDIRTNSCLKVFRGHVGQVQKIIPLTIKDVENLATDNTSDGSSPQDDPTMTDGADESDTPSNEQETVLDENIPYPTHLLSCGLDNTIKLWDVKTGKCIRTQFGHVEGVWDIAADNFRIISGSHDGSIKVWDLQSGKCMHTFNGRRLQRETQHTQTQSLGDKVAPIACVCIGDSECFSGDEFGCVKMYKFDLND
Kind of test: co-IP.

These are yes or no findings as the source states them, for the method shown. In cells and extracts the contact can be indirect. Some results given as binding are weak or reduced against the parent protein; the word gives no strength. Sequences can lack the tags named with a protein.

One molecule from article doi:10.1101/2021.01.06.425657 can be followed below.

B1: Cdc53 (protein, UniProt Q12018 1-815)
chain: MSETLPRSDDLEATWNFIEPGINQILGNEKNQASTSKRVYKILSPTMYMEVYTAIYNYCVNKSRSSGHFSTDSRTGQSTILVGSEIYEKLKNYLKNYILNFKQSNSETFLQFYVKRWKRFTIGAIFLNHAFDYMNRYWVQKERSDGKRHIFDVNTLCLMTWKEVMFDPSKDVLINELLDQVTLGREGQIIQRSNISTAIKSLVALGIDPQDLKKLNLNVYIQVFEKPFLKKTQEYYTQYTNDYLEKHSVTEYIFEAHEIIKREEKAMTIYWDDHTKKPLSMALNKVLITDHIEKLENEFVVLLDARDIEKITSLYALIRRDFTLIPRMASVFENYVKKTGENEISSLLAMHKHNIMKNENANPKKLALMTAHSLSPKDYIKKLLEVHDIFSKIFNESFPDDIPLAKALDNACGAFININEFALPAGSPKSATSKTSEMLAKYSDILLKKATKPEVASDMSDEDIITIFKYLTDKDAFETHYRRLFAKRLIHGTSTSAEDEENIIQRLQAANSMEYTGKITKMFQDIRLSKILEDDFAVALKNEPDYSKAKYPDLQPFVLAENMWPFSYQEVEFKLPKELVPSHEKLKESYSQKHNGRILKWLWPLCRGELKADIGKPGRMPFNFTVTLFQMAILLLYNDADVLTLENIQEGTSLTIQHIAAAMVPFIKFKLIQQVPPGLDALVKPETQFKLSRPYKALKTNINFASGVKNDILQSLSGGGHDNHGNKLGNKRLTEDERIEKELNTERQIFLEACIVRIMKAKRNLPHTTLVNECIAQSHQRFNAKVSMVKRAIDSLIQKGYLQRGDDGESYAYLA
B1: the binding result is reported as “binds”.
